Test results from US6504005B1 (Yeda Research and Development Co. Ltd., priority 1996, dated 2003).

Assay: peptide synthesis
Settings: late stage modification step
[1] = Based on pure material obtained following HPLC

Substance | step yield | step yield [1]
Phe^B1, Lys^B29-N-(Fmoc)2-insulin | ˜50% | 14%
Gly^A1, Phe^B1, Lys^B29-N-(Fmoc)3-insulin |  | 30%
